The text below walks through data of patent US20260217843A1.

Protein sequences, listed by entry. Tags and fused reporters are not part of them. Lines headed by an entry give the natural chain unless they say otherwise; changes in a name come on top.
UniProt P23510: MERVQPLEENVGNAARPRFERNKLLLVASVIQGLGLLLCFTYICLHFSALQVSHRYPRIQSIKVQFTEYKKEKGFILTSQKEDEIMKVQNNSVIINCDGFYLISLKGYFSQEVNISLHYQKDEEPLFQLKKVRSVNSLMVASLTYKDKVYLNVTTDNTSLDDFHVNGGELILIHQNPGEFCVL

The target in experiment [1] is biotinylated hOX40L (human) (UniProt P23510). Put plainly: competition ELISA: biotinylated hOX40L preincubated with titrated antibody, added to plates coated with hOX40-Fc (the blocked partner), bound hOX40L detected with Extravidin-HRP. (In general: An ELISA detects its analyte on a solid surface through an enzyme-linked reagent.)
In experiment [2] the target is hOX40L on hOX40L-expressing CHO cells (human) (UniProt P23510). Put plainly: flow cytometry on hOX40L-expressing CHO cells, titrated antibody detected with fluorophore-labeled goat anti-human IgG, gMFI. (A flow cytometer gives signals particle by particle.)

No constants are given. Whether binding was seen depends on the method and setting. Some entries that bind do so weakly or less than the wild type.

B1: positive control based on the sequences of the anti-hOX40L antibody amlitelimab (antibody, IgG4, V domains shown)
VH: EVQLVESGGGLVQPGGSLRLSCAASGFTFSNYAMNWVRQAPGKGLEWVSTISGSGGATRYADSVKGRFTISRDNSRNTVYLQMNSLRVEDTAVFYCTKDRLIMATVRGPYYYGMDVWGQGTTVTVSS
VL: DIQMTQSPSSLSASVGDRVTITCRASQSISSYLNWYQQKPGKAPNLLIYAASSLQSGVPSRFSGSGSETDFTLTISSLQPEDFATYYCQQSHSVSFTFGPGTKVDIK
On to B1, for which the binding result in experiment [1] and in experiment [2] was “binds” in each case.
